# Results are given in words; binding and its absence hold for the method and conditions named. In cells and extracts the contact can be indirect. For part of these data: A result given as binding can be weak or reduced; the word gives no strength. Tags and fused reporters may be left off the sequences shown.
# Tests used:
# Assay in all cases: co-IP
# [1] = molecular target: T1, FLAG-TRIP6 amino-terminal half (amino acids 1-277) (UniProt Q15654)
# T1 sequence: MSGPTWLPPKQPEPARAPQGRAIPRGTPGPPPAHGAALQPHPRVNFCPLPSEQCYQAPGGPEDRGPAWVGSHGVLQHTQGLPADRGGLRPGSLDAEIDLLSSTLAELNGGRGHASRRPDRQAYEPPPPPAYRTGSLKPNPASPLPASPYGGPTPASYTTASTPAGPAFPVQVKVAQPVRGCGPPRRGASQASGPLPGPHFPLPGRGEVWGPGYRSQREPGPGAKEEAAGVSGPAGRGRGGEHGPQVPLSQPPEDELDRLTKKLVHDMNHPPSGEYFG
# FLAG-TRIP6 Δ1-9 = molecular target: T2, FLAG-TRIP6 Δ1-9 (UniProt Q15654)
# T2 sequence: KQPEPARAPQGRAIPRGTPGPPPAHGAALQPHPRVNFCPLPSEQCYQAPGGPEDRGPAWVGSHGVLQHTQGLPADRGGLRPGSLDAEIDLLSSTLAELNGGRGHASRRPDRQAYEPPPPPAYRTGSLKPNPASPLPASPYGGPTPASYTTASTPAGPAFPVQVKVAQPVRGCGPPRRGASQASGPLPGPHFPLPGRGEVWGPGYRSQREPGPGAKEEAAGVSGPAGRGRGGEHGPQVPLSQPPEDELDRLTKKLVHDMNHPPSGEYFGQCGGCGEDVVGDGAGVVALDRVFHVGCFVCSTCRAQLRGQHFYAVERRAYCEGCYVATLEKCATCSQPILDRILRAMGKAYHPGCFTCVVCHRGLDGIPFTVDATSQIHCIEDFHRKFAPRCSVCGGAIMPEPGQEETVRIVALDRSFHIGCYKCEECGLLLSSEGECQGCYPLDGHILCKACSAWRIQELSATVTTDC
# FLAG-TRIP6 Δ252-277 = molecular target: T3, FLAG-TRIP6 Δ252-277 (UniProt Q15654)
# T3 sequence: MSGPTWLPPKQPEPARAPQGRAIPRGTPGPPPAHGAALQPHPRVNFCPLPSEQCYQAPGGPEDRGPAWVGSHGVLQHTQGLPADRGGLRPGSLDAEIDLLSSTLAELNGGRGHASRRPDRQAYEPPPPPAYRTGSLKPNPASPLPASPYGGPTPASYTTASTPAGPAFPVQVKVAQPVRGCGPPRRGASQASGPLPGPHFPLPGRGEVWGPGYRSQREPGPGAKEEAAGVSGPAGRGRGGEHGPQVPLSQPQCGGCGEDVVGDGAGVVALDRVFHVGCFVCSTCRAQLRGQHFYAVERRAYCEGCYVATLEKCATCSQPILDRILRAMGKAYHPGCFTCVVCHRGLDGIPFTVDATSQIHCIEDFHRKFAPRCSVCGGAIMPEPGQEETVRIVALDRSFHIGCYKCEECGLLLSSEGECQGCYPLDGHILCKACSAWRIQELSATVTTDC
substance,measurement,setting,value
vinculin (from UniProt P18206-2),binding,[1],binds
same,binding,FLAG-TRIP6 Δ1-9,binds
same,binding,FLAG-TRIP6 Δ252-277,no binding

# Source: publication doi:10.1101/2023.10.12.562097
